Among the data in paper PMC10827754, “The crystal structure of SUN1-KASH6 reveals an asymmetric LINC complex architecture compatible with nuclear membrane insertion” (Communications Biology, 2024) are binding values, retold here.

Results are given in words; binding and its absence hold for the method and conditions named. Binding can be weak; no strength is given. For some of these results: Binding seen in cells or lysates may run through a third protein.

For experiment [1], the target named is SUN domain of human SUN1 (amino-acids 616-812) (human). Description: SEC-MALS; untreated (native) co-purified complex; 8-13 mg/ml loaded on Superdex 200 Increase 10/300 GL in 20 mM Hepes pH 7.5, 150 mM KCl, 2 mM DTT; both purified. For orientation: SEC sorts molecules by how far they enter the pores of the column.
For experiment [2] the target is unchanged. Description: SEC-SAXS; SUN1-KASH6 core 9:6 and 6:6 species; 12-25 mg/ml prepared as for SEC-MALS, Superdex 200 Increase 10/300 GL in 20 mM Hepes pH 7.5, 150 mM KCl, 2 mM DTT; curves fitted with crystal structures (CRYSOL), ab initio envelopes (DAMMIF); both purified.
For experiment [3] the target is unchanged. The experiment is described as follows: cryo-EM 2D class averages; purified complex at 1 mg/ml after treatment at pH 5.0; reference-free 2D class averages; both purified.

With EDSATSLEHILWPFTRLRHNGPPPV (peptide, UniProt Q12912 531-555) [KASH6 core W534A (human JAW1/LRMP amino-acids 531-555)], the binding entry in experiment [1] is on record as “binds”.

Turning to EDSWTSLEQILWPFTRLRHNGPPPV (peptide, UniProt Q12912 531-555) [KASH6 core H539Q (human JAW1/LRMP amino-acids 531-555)], the binding result in experiment [1] is on record as “binds”. EDSWTSLEHILWPFTRLRHNGPPPV (peptide, UniProt Q12912 531-555) [KASH6 core (human JAW1/LRMP amino-acids 531-555)]: the binding entry in experiment [2] and in experiment [3] was “binds” each time.
